# Where “and” joins values, the source holds several entries; their conditions need not be identical. Identical values can stand only once. The whole screen tested about 580,000 compounds, of which about 6,100 (1.1%) were called active. The inconclusive results got no clear call from the source; some entries with a clear call stand among them for comparison. The call rests on the fitted dose curve; in most records, active means well fitted inhibition curve with a large enough effect; inconclusive means small, poorly fitted or top-dose-only effect, or another doubt; inactive means no such curve, though single readings can be large or run the other way. Where the call is inconclusive, the potency comes from a doubtful curve fit.
# Amino acid sequences for entries named in this document (tags omitted).
# UniProt P18054, whole entry, looked up: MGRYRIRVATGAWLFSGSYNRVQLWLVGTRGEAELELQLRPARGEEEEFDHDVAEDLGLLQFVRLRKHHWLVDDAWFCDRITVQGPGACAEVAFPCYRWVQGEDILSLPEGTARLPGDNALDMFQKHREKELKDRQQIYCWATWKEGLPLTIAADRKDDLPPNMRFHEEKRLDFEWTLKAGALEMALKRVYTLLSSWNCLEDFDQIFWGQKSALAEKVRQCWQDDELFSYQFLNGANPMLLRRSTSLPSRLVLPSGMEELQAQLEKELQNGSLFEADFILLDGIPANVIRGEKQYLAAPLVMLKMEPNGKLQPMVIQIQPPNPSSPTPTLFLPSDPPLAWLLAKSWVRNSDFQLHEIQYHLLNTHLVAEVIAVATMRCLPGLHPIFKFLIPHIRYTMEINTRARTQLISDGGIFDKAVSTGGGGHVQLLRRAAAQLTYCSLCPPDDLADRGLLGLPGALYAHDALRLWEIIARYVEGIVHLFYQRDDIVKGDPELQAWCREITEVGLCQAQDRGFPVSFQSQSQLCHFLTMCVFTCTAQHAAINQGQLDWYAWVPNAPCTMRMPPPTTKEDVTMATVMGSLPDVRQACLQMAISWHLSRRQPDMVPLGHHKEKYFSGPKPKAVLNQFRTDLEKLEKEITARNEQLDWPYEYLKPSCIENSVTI
# Target: Polyunsaturated fatty acid lipoxygenase ALOX12 (Homo sapiens) (UniProt P18054)
# Test: Primary qHTS assay for inhibitors of human arachidonate 12S-lipoxygenase (ALOX12): Round 2
# Settings: purified 12hLO, xylenol orange hydroperoxide absorbance; activity change, negative = inhibition: at 108 µM (top of the series) unless noted
# How it was run: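 Purified human 12hLO (150 nM final) in 25 mM Hepes, 0.01% Triton X-100, pH 7.0 was preincubated 15 min at room temperature with compound. Then 40 uM arachidonic acid was added, 30 min. Hydroperoxide was read by Fe-XO absorbance ratio 573/405 nm.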
# On the % scale 0 is the no-effect control and ±100 the full control effect; potency means the concentration at half of the fitted maximal effect.
Compound,Potency,"activity change, negative = inhibition"
CC1=C(c2ccc(C(C)C)cc2)S(=O)(=O)NC1=NC(C)C12CC3CC(CC(C3)C1)C2 (stereo unspecified),"inconclusive: 44.7 µM [inhibitor, partial curve, poor fit]",–
CCCN(C(=O)c1cc2c(=O)n(CC)c3ccccc3c2s1)c1ccccc1F,"inconclusive: 126 µM [inhibitor, partial curve, poor fit]",–
Cc1nc2ccccc2nc1CS(=O)(=O)C(C)C(=O)NCC(C)C (stereo unspecified),–,inactive: -14.6%
CCOC(=O)C1CCCN(C(=O)c2coc(COc3cccc(F)c3F)n2)C1 (stereo unspecified),–,inactive: 24.7%
Cc1ccc(OCC(O)CNC2CCCC2)c(C)c1 (stereo unspecified),–,inactive: -0.885%
COc1cc(CNn2cn[nH]c2=S)ccc1OCC(=O)NC(C)(C)C,"inconclusive: 35.5 µM [inhibitor, partial curve, poor fit]",–
Cn1cccc1-c1cc(C(=O)N/N=C/c2cc(Br)ccc2O)[nH]n1,"inconclusive: 50.1 µM [inhibitor, partial curve, poor fit]",–
COC(=O)c1ccc2nc(C[C@@H]3C[C@@H](C(C)C)[C@H](CNC4CCN(C)CC4)C=C3C)[nH]c2c1,"inconclusive: 44.7 µM [inhibitor, partial curve]",–
CCOC(=O)c1cc(OC(=O)c2cccc(Cl)c2)n(-c2ccccc2)n1,"inconclusive: 89.1 µM [inhibitor, partial curve, poor fit]",–
COc1cc(NC(=O)Cn2c(=O)nc(-c3ccccc3F)c3cc(Cl)ccc32)cc(OC)c1,–,inconclusive: -31.4% [inhibitor]
COc1ccc(C(OC(=O)c2cccs2)C(=O)NCC2CCCO2)cc1 (stereo unspecified),–,inactive: 3.93%
CC1CCCCN1c1nc(-c2ccc(C(C)(C)C)cc2)nc2ccccc12 (stereo unspecified),–,inactive: 5.08%
O=C(Nc1ccccc1F)NC1(C(F)(F)F)Oc2ccccc2O1,"inconclusive: 126 µM [inhibitor, single point]",–
CC(C)OCCN1CCN(c2oc(-c3ccco3)nc2C#N)CC1,–,inactive: 55.1%
COC(=O)CCCC1=CC2=CC(=O)C(C)(OC(=O)c3cccs3)C(=O)C2=CN1CCCOC(C)C (stereo unspecified),–,inactive: -6.91%
CC1CCN(c2ccc(C(=O)O)cc2N)CC1,–,inactive: 0%
CC[C@@H]1C(=O)N(C)c2cnc(Nc3ccc(C(=O)NC4CCN(C)CC4)cc3OC)nc2N1C1CCCC1,"inconclusive: 24.3 µM [inhibitor, partial curve, poor fit]",–
O=C(Nc1ccc([N+](=O)[O-])cc1)Nc1ccc(N2CCOCC2)c2nonc12,"inconclusive: 50.1 µM [inhibitor, partial curve, poor fit]",–
Cc1c(Cl)cnc(NC(=O)COC(=O)/C=C/c2ccco2)c1Cl,"inconclusive: 44.7 µM [inhibitor, partial curve]",–
Cc1cccc(-c2nnc(SCC(=O)NC(=O)NC3CCCC3)n2Cc2ccco2)c1,"inconclusive: 70.8 µM [inhibitor, single point]",–
COc1ccc(/C=N/N2CCN(C3c4ccccc4-c4ccccc43)CC2)cc1OC,"inconclusive: 141 µM [inhibitor, partial curve, poor fit]",–
CCOCCCn1c(=S)[nH]c2cc(C(=O)N3CCC(C(N)=O)(N4CCCCC4)CC3)ccc2c1=O,–,inactive: 0.061%

Compound,Potency,"activity change, negative = inhibition"
O=c1[nH]cccc1NS(=O)(=O)c1ccccc1Cl,active: 35.5 µM,–
COc1cccc(-n2c(-c3ccc(C)cc3)cc3c2CC(C)(C)CC3=O)c1,–,inactive: -18.3%
CCOC(=O)C1C(=O)C=C(c2cccs2)CC1c1ccc(CC)cc1 (stereo unspecified),"inconclusive: 44.7 µM [inhibitor, single point]",–
CN(C)c1ccc(C=C(C#N)C(=O)c2ccccc2)cc1Br,"inconclusive: 79.4 µM [inhibitor, partial curve, poor fit]",–
Cc1ccc(-c2ncc(C(=O)Nc3ccccc3F)c(-c3ccncc3)n2)cc1,"inconclusive: 79.4 µM [inhibitor, single point]",–
COc1ccc(N2CCN(CCNC(=O)C3CCN(S(=O)(=O)c4cccs4)CC3)CC2)cc1,–,inactive: -0.104%
Cn1c(=O)c2c(nc(SCC(N)=O)n2Cc2ccc(Cl)cc2)n(C)c1=O,"inconclusive: 50.1 µM [inhibitor, partial curve, poor fit]",–
COc1ccc(C)cc1-n1cnnn1,–,inactive: 0%
Clc1ccc(-c2nc(NCc3ccc4c(c3)OCO4)c3ccccc3n2)cc1,"inconclusive: 14.1 µM [inhibitor, full curve]",–
O=C(CCn1ccn2nc3c(c2c1=O)CCCC3)Nc1cccc(Cl)c1F,–,inactive: 14%
CC(C(=O)NC(C)(C)C)N1CCC(C(=O)NCc2ccco2)CC1 (stereo unspecified),–,inactive: 36.5%
O=C(c1ccc(O)cc1)c1ccc(C(=O)O)c(C(=O)O)c1,"inconclusive: 39.8 µM [inhibitor, partial curve, poor fit]",–
Cc1ccc(SC(=O)c2ccc(Cl)cc2Cl)cc1,"inconclusive: 89.1 µM [inhibitor, single point]",–
COc1cc(/C=C/c2ccc3cccc(O)c3n2)cc(OC)c1,"inconclusive: 56.2 µM [inhibitor, partial curve, poor fit]",–
Cc1cc(=O)oc2c3c(cc(OCC(=O)NCCC(=O)O)c12)OC(C)(C)CC3,"inconclusive: 44.7 µM [inhibitor, partial curve, poor fit]",–
CCN1CCc2c(sc(NC(=O)c3ccc(S(=O)(=O)N4CCCC4)cc3)c2C(=O)NC)C1,–,inactive: -11.9%
c1ccc2c(c1)OCC(CCNc1ncncn1)O2 (stereo unspecified),–,inactive: 18.6%
C[C@@H]1O[C@@H](O[C@@H]2C(=O)c3c(O)cc(O)cc3O[C@H]2c2ccc(O)c(O)c2)[C@H](O)[C@H](O)[C@H]1O,–,inactive: -9.4%
CCCCCCc1cc2cc(/C(C)=N/O)c(=O)oc2cc1O,"inconclusive: 63.1 µM [inhibitor, partial curve, poor fit]",–
C/C(Cl)=C\Cn1c(NCCc2ccccc2)nc2c1c(=O)n(C)c(=O)n2C,–,inactive: -6.07%
COc1ccc(CN(C(=O)/C=C/c2ccccc2Cl)C2CCS(=O)(=O)C2)cc1 (stereo unspecified),"inconclusive: 112 µM [inhibitor, partial curve, poor fit]",–
Cc1cc(NC(=O)CSc2c(C)[nH]c3ccccc23)no1,–,inactive: -10.9%

Compound,Potency,"activity change, negative = inhibition"
CN(C)C(=O)c1ccc(-c2cncnc2NCc2ccccc2)cc1,"inconclusive: 44.7 µM [inhibitor, partial curve, poor fit]",–
CN(C)c1ccc(CNC(=O)CCn2c(=O)c3cccn3c3ccc(F)cc32)cc1,"inconclusive: 112 µM [inhibitor, partial curve, poor fit]",–
COC(=O)C1=C(C)N(C)C(=NCC2CC2)NC1c1ccccc1C(F)(F)F (stereo unspecified),"inconclusive: 50.1 µM [inhibitor, single point]",–
Cn1cccc1C(=O)NC(=O)COC(=O)CCNS(=O)(=O)c1ccc(Cl)cc1,"inconclusive: 25.1 µM [inhibitor, partial curve, poor fit]",–
COC(=O)C1=C(C)NC2=C(C(=O)CCC2)C1c1cn(Cc2ccc(Cl)cc2Cl)nc1-c1ccccc1 (stereo unspecified),"inconclusive: 15.8 µM [inhibitor, partial curve, poor fit]",–
CN(c1ccccc1)c1ccc(/C=C(\CCC(=O)O)c2nc3ccccc3s2)cc1[N+](=O)[O-],"inconclusive: 44.7 µM [inhibitor, partial curve, poor fit]",–
CN(Cc1ccccn1)C1CCCc2ccccc21 (stereo unspecified),–,inactive: 55.5% [at 176 µM]
C[C@H](CO)N1C[C@H](C)[C@@H](CN(C)Cc2ccncc2)Oc2c(NS(=O)(=O)c3ccc(Cl)cc3)cccc2C1=O,"inconclusive: 44.7 µM [inhibitor, partial curve, poor fit]",–
COc1ccccc1CCn1cnc(-c2ccccc2OC)c1CC(C)C,"inconclusive: 50.1 µM [inhibitor, partial curve, poor fit]",–
O=C(N/N=C/c1ccnc2ccccc12)c1ccccc1O,–,inactive: -3.02%
COc1cccc(CN(C)CC(=O)Nc2cccc3ccccc23)c1,"inconclusive: 0.891 µM [inhibitor, full curve, poor fit]",–
CC(CCc1ccco1)NC(=O)c1ccccc1F (stereo unspecified),–,inactive: -0.921%
CCOc1cc(S(=O)(=O)NCC2CCCO2)ccc1F (stereo unspecified),"inconclusive: 35.5 µM [inhibitor, partial curve, poor fit]",–
O=C(CSc1nnc(C2CC2)n1C1CC1)N1CCN(c2ccc(O)cc2)CC1,"inconclusive: 39.8 µM [inhibitor, partial curve, poor fit]",–
COc1ccc(NC(=O)C(CC(=O)O)Cc2ccccc2)cc1 (stereo unspecified),–,inactive: 7.45%
O=C(NC1CCCCCC1)C1CCN(C(=O)c2ncn3c2COC(c2ccc(F)cc2)C3)CC1 (stereo unspecified),"inconclusive: 79.4 µM [inhibitor, partial curve, poor fit]",–
COc1cccc(OCCNc2ccc([N+](=O)[O-])cn2)c1,"inconclusive: 44.7 µM [inhibitor, partial curve, poor fit]",–
Cc1ccc(-c2c(C)nn3c2NC(=O)CCC3=O)cc1S(=O)(=O)NCc1ccc(F)cc1,"inconclusive: 39.8 µM [inhibitor, partial curve]",–
N#Cc1nc(COc2ccccc2)oc1NCCCN1CCOCC1,–,inactive: -9.68%
Cc1ccc(NS(=O)(=O)c2ccc3c(c2)NC(=O)CCS3)cc1F,"inconclusive: 56.2 µM [inhibitor, partial curve, poor fit] and inconclusive: 50.1 µM [inhibitor, partial curve, poor fit]",–
O=C(O)CCN1C(=O)CC(N2C(=O)/C(=C/c3ccc(Cl)cc3)SC2=S)C1=O (stereo unspecified),"inconclusive: 44.7 µM [inhibitor, partial curve, poor fit]",–
O=C1/C(=C/c2ccc(Cl)cc2)SC(=S)N1CCC(=O)N1CCCCC1CCO (stereo unspecified),–,inactive: -6.62%
